Some of these results come from one statement about several compounds together.
Molecular target: T1, His-SMAD4R361H/Flag-SMAD3 PPI (Homo sapiens, UniProt Q13485, R361H)
T1 construct: expressed in transfected cells; host or cells: HEK293T
Test: TR-FRET assay of the SMAD4R361H/SMAD3 protein-protein interaction in cell lysate
Assay type: binding
Details: test compounds 20 μM; compared with the DMSO control

Sequences of proteins named here, by UniProt entry; tags and fusion partners are left off.
UniProt Q13485, whole entry R361H: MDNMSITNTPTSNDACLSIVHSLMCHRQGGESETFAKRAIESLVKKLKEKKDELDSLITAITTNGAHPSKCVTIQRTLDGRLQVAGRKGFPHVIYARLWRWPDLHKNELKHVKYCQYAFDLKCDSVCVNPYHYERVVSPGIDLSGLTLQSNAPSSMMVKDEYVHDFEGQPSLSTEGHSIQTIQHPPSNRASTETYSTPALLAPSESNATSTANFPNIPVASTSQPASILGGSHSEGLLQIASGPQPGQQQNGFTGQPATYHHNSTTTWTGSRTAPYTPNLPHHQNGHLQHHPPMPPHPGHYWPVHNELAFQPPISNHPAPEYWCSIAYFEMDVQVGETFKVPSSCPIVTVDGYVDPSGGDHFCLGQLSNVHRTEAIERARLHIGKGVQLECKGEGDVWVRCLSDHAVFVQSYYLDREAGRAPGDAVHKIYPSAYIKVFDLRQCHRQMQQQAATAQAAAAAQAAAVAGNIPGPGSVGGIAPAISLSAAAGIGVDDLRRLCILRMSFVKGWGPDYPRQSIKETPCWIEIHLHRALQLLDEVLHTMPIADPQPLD

## Cn1cc(C2=C(c3cn(CCCSC(=N)N)c4ccccc34)C(=O)NC2=O)c2ccccc21 [Ro-31-8220, 3-(3-(4-(1-methyl-1H-indol-3-yl)-2,5-dioxo-2,5-dihydro-1H-pyrrol-3-yl)-1H-indol-1-yl)propyl carbamimidothioate]
  potentiation effect for the SMAD4R361H-SMAD3 PPI from the primary screening: > 40%

Source: US20230201173A1, “SMAD4 Complex Inducers and Uses in Cancer Therapy” (Emory University, priority 2021, published 2023)
